# No constants are given. Whether binding was seen depends on the method and setting. Binding seen in cells or lysates may run through a third protein. Here binding means that the protein was enriched with, or labelled near, the bait; the list need not be complete.
# B1: Acinus (protein, UniProt Q9UKV3 1-1341)
# chain: MWRRKHPRTSGGTRGVLSGNRGVEYGSGRGHLGTFEGRWRKLPKMPEAVGTDPSTSRKMAELEEVTLDGKPLQALRVTDLKAALEQRGLAKSGQKSALVKRLKGALMLENLQKHSTPHAAFQPNSQIGEEMSQNSFIKQYLEKQQELLRQRLEREAREAAELEEASAESEDEMIHPEGVASLLPPDFQSSLERPELELSRHSPRKSSSISEEKGDSDDEKPRKGERRSSRVRQARAAKLSEGSQPAEEEEDQETPSRNLRVRADRNLKTEEEEEEEEEEEEDDEEEEGDDEGQKSREAPILKEFKEEGEEIPRVKPEEMMDERPKTRSQEQEVLERGGRFTRSQEEARKSHLARQQQEKEMKTTSPLEEEEREIKSSQGLKEKSKSPSPPRLTEDRKKASLVALPEQTASEEETPPPLLTKEASSPPPHPQLHSEEEIEPMEGPAPAVLIQLSPPNTDADTRELLVSQHTVQLVGGLSPLSSPSDTKAESPAEKVPEESVLPLVQKSTLADYSAQKDLEPESDRSAQPLPLKIEELALAKGITEECLKQPSLEQKEGRRASHTLLPSHRLKQSADSSSSRSSSSSSSSSRSRSRSPDSSGSRSHSPLRSKQRDVAQARTHANPRGRPKMGSRSTSESRSRSRSRSRSASSNSRKSLSPGVSRDSSTSYTETKDPSSGQEVATPPVPQLQVCEPKERTSTSSSSVQARRLSQPESAEKHVTQRLQPERGSPKKCEAEEAEPPAATQPQTSETQTSHLPESERIHHTVEEKEEVTMDTSENRPENDVPEPPMPIADQVSNDDRPEGSVEDEEKKESSLPKSFKRKISVVSATKGVPAGNSDTEGGQPGRKRRWGASTATTQKKPSISITTESLKSLIPDIKPLAGQEAVVDLHADDSRISEDETERNGDDGTHDKGLKICRTVTQVVPAEGQENGQREEEEEEKEPEAEPPVPPQVSVEVALPPPAEHEVKKVTLGDTLTRRSISQQKSGVSITIDDPVRTAQVPSPPRGKISNIVHISNLVRPFTLGQLKELLGRTGTLVEEAFWIDKIKSHCFVTYSTVEEAVATRTALHGVKWPQSNPKFLCADYAEQDELDYHRGLLVDRPSETKTEEQGIPRPLHPPPPPPVQPPQHPRAEQREQERAVREQWAEREREMERRERTRSEREWDRDKVREGPRSRSRSRDRRRKERAKSKEKKSEKKEKAQEEPPAKLLDDLFRKTKAAPCIYWLPLTDSQIVQKEAERAERAKEREKRRKEQEEEEQKEREKEAERERNRQLEREKRREHSRERDRERERERERDRGDRDRDRERDRERGRERDRRDTKRHSRSRSRSTPVRDRGGRR
# B2: ARS2B (protein, UniProt Q9BXP5 1-876)
# chain: MGDSDDEYDRRRRDKFRRERSDYDRSRERDERRRGDDWNDREWDRGRERRSRGEYRDYDRNRRERFSPPRHELSPPQKRMRRDWDEHSSDPYHSGYEMPYAGGGGGPTYGPPQPWGHPDVHIMQHHVLPIQARLGSIAEIDLGVPPPVMKTFKEFLLSLDDSVDETEAVKRYNDYKLDFRRQQMQDFFLAHKDEEWFRSKYHPDEVGKRRQEARGALQNRLRVFLSLMETGWFDNLLLDIDKADAIVKMLDAAVIKMEGGTENDLRILEQEEEEEQAGKPGEPSKKEEGRAGAGLGDGERKTNDKDEKKEDGKQAENDSSNDDKTKKSEGDGDKEEKKEDSEKEAKKSSKKRNRKHSGDDSFDEGSVSESESESESGQAEEEKEEAEEALKEKEKPKEEEWEKPKDAAGLECKPRPLHKTCSLFMRNIAPNISRAEIISLCKRYPGFMRVALSEPQPERRFFRRGWVTFDRSVNIKEICWNLQNIRLRECELSPGVNRDLTRRVRNINGITQHKQIVRNDIKLAAKLIHTLDDRTQLWASEPGTPPLPTSLPSQNPILKNITDYLIEEVSAEEEELLGSSGGAPPEEPPKEGNPAEINVERDEKLIKVLDKLLLYLRIVHSLDYYNTCEYPNEDEMPNRCGIIHVRGPMPPNRISHGEVLEWQKTFEEKLTPLLSVRESLSEEEAQKMGRKDPEQEVEKFVTSNTQELGKDKWLCPLSGKKFKGPEFVRKHIFNKHAEKIEEVKKEVAFFNNFLTDAKRPALPEIKPAQPPGPAQILPPGLTPGLPYPHQTPQGLMPYGQPRPPILGYGAGAVRPAVPTGGPPYPHAPYGAGRGNYDAFRGQGGYPGKPRNRMVRGDPRAIVEYRDLDAPDDVDFF
# B3: ZC3H18 (protein, UniProt Q86VM9 1-953)
# chain: MDVAESPERDPHSPEDEEQPQGLSDDDILRDSGSDQDLDGAGVRASDLEDEESAARGPSQEEEDNHSDEEDRASEPKSQDQDSEVNELSRGPTSSPCEEEGDEGEEDRTSDLRDEASSVTRELDEHELDYDEEVPEEPAPAVQEDEAEKAGAEDDEEKGEGTPREEGKAGVQSVGEKESLEAAKEKKKEDDDGEIDDGEIDDDDLEEGEVKDPSDRKVRPRPTCRFFMKGNCTWGMNCRFIHPGVNDKGNYSLITKADPFPPNGAPPLGPHPLMPANPWGGPVVDEILPPPPPEPPTESAWERGLRHAKEVLKKATIRKEQEPDFEEKRFTVTIGEDEREFDKENEVFRDWNSRIPRDVRDTVLEPYADPYYDYEIERFWRGGQYENFRVQYTETEPYHNYRERERERERENRQRERERERERDRERERRQRERERERERERDKERQRRKEEWERERAKRDEKDRQHRDRDREKEREKEKGKPKPRSPQPPSRQAEPPKKEAATTGPQVKRADEWKDPWRRSKSPKKKLGVSVSPSRARRRRKTSASSASASNSSRSSSRSSSYSGSGSSRSRSRSSSYSSYSSRSSRHSSFSGSRSRSRSFSSSPSPSPTPSPHRPSIRTKGEPAPPPGKAGEKSVKKPAPPPAPPQATKTTAPVPEPTKPGDPREARRKERPARTPPRRRTLSGSGSGSGSSYSGSSSRSRSLSVSSVSSVSSATSSSSSAHSVDSEDMYADLASPVSSASSRSPAPAQTRKEKGKSKKEDGVKEEKRKRDSSTQPPKSAKPPAGGKSSQQPSTPQQAPPGQPQQGTFVAHKEIKLTLLNKAADKGSRKRYEPSDKDRQSPPPAKRPNTSPDRGSRDRKSGGRLGSPKPERQRGQNSKAPAAPADRKRQLSPQSKSSSKVTSVPGKASDPGAASTKSGKASTLSRREELLKQLKAVEDAIARKRAKIPGKA
# B4: ANXA6 (protein, UniProt P08133 1-673)
# chain: MAKPAQGAKYRGSIHDFPGFDPNQDAEALYTAMKGFGSDKEAILDIITSRSNRQRQEVCQSYKSLYGKDLIADLKYELTGKFERLIVGLMRPPAYCDAKEIKDAISGIGTDEKCLIEILASRTNEQMHQLVAAYKDAYERDLEADIIGDTSGHFQKMLVVLLQGTREEDDVVSEDLVQQDVQDLYEAGELKWGTDEAQFIYILGNRSKQHLRLVFDEYLKTTGKPIEASIRGELSGDFEKLMLAVVKCIRSTPEYFAERLFKAMKGLGTRDNTLIRIMVSRSELDMLDIREIFRTKYEKSLYSMIKNDTSGEYKKTLLKLSGGDDDAAGQFFPEAAQVAYQMWELSAVARVELKGTVRPANDFNPDADAKALRKAMKGLGTDEDTIIDIITHRSNVQRQQIRQTFKSHFGRDLMTDLKSEISGDLARLILGLMMPPAHYDAKQLKKAMEGAGTDEKALIEILATRTNAEIRAINEAYKEDYHKSLEDALSSDTSGHFRRILISLATGHREEGGENLDQAREDAQVAAEILEIADTPSGDKTSLETRFMTILCTRSYPHLRRVFQEFIKMTNYDVEHTIKKEMSGDVRDAFVAIVQSVKNKPLFFADKLYKSMKGAGTDEKTLTRIMVSRSEIDLLNIRREFIEKYDKSLHQAIEGDTSGDFLKALLALCGGED
# B5: PCNP (protein, UniProt Q8WW12 1-178)
# chain: MADGKAGDEKPEKSQRAGAAGGPEEEAEKPVKTKTVSSSNGGESSSRSAEKRSAEEEAADLPTKPTKISKFGFAIGSQTTKKASAISIKLGSSKPKETVPTLAPKTLSVAAAFNEDEDSEPEEMPPEAKMRMKNIGRDTPTSAGPNSFNKGKHGFSDNQKLWERNIKSHLGNVHDQDN
# B6: ZNF598 (protein, UniProt Q86UK7 1-904)
# chain: MAAAGGAEGRRAALEAAAAAAPERGGGSCVLCCGDLEATALGRCDHPVCYRCSTKMRVLCEQRYCAVCREELRQVVFGKKLPAFATIPIHQLQHEKKYDIYFADGKVYALYRQLLQHECPRCPELPPFSLFGDLEQHMRRQHELFCCRLCLQHLQIFTYERKWYSRKDLARHRMQGDPDDTSHRGHPLCKFCDERYLDNDELLKHLRRDHYFCHFCDSDGAQDYYSDYAYLREHFREKHFLCEEGRCSTEQFTHAFRTEIDLKAHRTACHSRSRAEARQNRHIDLQFSYAPRHSRRNEGVVGGEDYEEVDRYSRQGRVARAGTRGAQQSRRGSWRYKREEEDREVAAAVRASVAAQQQEEARRSEDQEEGGRPKKEEAAARGPEDPRGPRRSPRTQGEGPGPKETSTNGPVSQEAFSVTGPAAPGCVGVPGALPPPSPKLKDEDFPSLSASTSSSCSTAATPGPVGLALPYAIPARGRSAFQEEDFPALVSSVPKPGTAPTSLVSAWNSSSSSKKVAQPPLSAQATGSGQPTRKAGKGSRGGRKGGPPFTQEEEEDGGPALQELLSTRPTGSVSSTLGLASIQPSKVGKKKKVGSEKPGTTLPQPPPATCPPGALQAPEAPASRAEGPVAVVVNGHTEGPAPARSAPKEPPGLPRPLGSFPCPTPQEDFPALGGPCPPRMPPPPGFSAVVLLKGTPPPPPPGLVPPISKPPPGFSGLLPSPHPACVPSPATTTTTKAPRLLPAPRAYLVPENFRERNLQLIQSIRDFLQSDEARFSEFKSHSGEFRQGLISAAQYYKSCRDLLGENFQKVFNELLVLLPDTAKQQELLSAHTDFCNREKPLSTKSKKNKKSAWQATTQQAGLDCRVCPTCQQVLAHGDASSHQALHAARDDDFPSLQAIARIIT
# Target: T1, Splicing factor 1 (SF1) (human (endogenous in HeLa)) (UniProt Q15637)
# T1 sequence: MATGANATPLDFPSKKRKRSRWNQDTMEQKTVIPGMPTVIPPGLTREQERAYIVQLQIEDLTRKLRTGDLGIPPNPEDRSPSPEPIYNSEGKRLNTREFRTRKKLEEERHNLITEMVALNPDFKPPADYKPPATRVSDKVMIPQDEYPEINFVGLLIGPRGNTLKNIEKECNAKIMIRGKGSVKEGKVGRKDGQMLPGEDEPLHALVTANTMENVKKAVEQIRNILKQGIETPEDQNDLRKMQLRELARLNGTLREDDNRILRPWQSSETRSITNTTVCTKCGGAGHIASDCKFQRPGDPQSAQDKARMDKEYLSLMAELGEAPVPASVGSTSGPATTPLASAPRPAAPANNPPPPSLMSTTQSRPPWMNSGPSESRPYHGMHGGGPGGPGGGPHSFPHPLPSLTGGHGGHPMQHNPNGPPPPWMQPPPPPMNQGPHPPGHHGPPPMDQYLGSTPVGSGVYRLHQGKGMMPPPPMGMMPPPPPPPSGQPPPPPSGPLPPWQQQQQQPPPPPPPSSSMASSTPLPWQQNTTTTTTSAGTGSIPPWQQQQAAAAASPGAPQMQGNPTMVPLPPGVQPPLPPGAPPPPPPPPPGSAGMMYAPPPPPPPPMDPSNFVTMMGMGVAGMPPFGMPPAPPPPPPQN
# Assay: affinity purification with mass spectrometry; anti-SF1 on Protein G Sepharose; HeLa cell nuclear extract without or with 0.3 mg/ml RNase A; IP buffer 50 mM Tris-HCl pH 7.9, 100 mM NaCl, 0.05% NP-40, 0.5 mM DTT, 1 h 4°C; 1D PAGE, LC-MSMS; control mouse IgG
row,Binder,binding
1,B1,binds
2,B2,binds
3,B3,binds
4,B4,binds
5,B5,binds
6,B6,binds

# — paper PMC4666396
